Source: PMC10249783
These are yes or no findings as the source states them, for the method shown. In cells and extracts the contact can be indirect. Binding can be weak; no strength is given. Values belong to the substance of their own block, whether it stands above or below them.

The chains behind the UniProt entries cited, without tags or fusion partners. Where a name states a change or a piece, a line headed by the entry shows the natural chain unless it says otherwise.
UniProt P35613: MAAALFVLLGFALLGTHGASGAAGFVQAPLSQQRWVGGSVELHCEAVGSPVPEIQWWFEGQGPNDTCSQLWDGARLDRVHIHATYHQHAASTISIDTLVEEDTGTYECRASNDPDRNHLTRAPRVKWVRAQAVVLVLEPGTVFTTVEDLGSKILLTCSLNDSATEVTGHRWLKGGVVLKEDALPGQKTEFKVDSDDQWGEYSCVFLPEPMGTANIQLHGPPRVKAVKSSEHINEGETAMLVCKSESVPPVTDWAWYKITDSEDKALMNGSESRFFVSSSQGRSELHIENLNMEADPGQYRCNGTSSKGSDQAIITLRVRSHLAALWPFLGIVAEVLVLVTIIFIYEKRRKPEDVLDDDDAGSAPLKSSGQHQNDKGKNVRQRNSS
UniProt P11166: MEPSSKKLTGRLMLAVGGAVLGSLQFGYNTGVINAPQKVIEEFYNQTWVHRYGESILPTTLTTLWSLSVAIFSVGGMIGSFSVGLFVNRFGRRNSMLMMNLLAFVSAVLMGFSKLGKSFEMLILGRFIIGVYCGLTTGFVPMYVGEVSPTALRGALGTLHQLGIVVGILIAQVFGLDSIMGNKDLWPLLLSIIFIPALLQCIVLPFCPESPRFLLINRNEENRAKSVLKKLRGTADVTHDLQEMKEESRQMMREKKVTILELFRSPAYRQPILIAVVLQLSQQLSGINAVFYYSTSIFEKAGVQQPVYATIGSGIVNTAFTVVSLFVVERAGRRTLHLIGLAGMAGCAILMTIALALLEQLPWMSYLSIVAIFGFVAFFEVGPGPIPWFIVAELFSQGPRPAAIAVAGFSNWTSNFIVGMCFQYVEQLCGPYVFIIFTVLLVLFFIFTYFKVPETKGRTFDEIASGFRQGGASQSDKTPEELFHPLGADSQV

Legend:
CD147-Myc = CD147-Myc (UniProt P35613); assay: co-IP; 293T cells co-transfected with CD147-Myc and SLC2A1-Flag; NP40 lysate; immunoprecipitation with anti-c-Myc or anti-Flag antibody, protein A/G agarose, 4 °C; immunoblot
SLC2A1-Flag = SLC2A1-Flag (UniProt P11166); assay: as above
[1] = target: CD147 (endogenous, HaCaT) (human (endogenous in HaCaT)) (UniProt P35613); assay: co-IP; endogenous proteins in HaCaT cell extract; NP40 lysate; immunoprecipitation with anti-CD147 or anti-Glut1 antibody, IgG as control, protein A/G agarose, 4 °C; immunoblot
[2] = target: Glut1 (endogenous, HaCaT) (human (endogenous in HaCaT)) (UniProt P11166); assay: as above

binding (CD147-Myc): binds
Substance: SLC2A1-Flag (from UniProt P11166 1-492)

binding (SLC2A1-Flag): binds
Substance: CD147-Myc (from UniProt P35613-2)

binding [1]: binds
Substance: Glut1 (endogenous, HaCaT) (from UniProt P11166 1-492)

binding [2]: binds
Substance: CD147 (endogenous, HaCaT) (from UniProt P35613-2)
